From US20130225493A1
These are yes or no findings as the source states them, for the method shown. Some binding calls cover weakened binding; strength is not graded here. Where a sequence is shown, tags or fusion partners need not be part of it.

By UniProt entry, the sequences of proteins in these tests, tags left out. Where a name states a change or a piece, a line headed by the entry shows the natural chain unless it says otherwise.
UniProt O76093: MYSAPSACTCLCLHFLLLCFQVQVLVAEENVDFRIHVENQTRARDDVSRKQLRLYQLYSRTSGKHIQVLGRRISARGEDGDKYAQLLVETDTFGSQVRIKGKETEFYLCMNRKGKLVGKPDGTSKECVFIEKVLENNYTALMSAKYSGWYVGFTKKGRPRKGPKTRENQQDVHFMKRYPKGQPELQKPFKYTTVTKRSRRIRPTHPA

What was measured:
[1] = target: T1, FGFR4 extracellular domain, immobilized (R4-Fc) (UniProt P22455); assay: functional ELISA on immobilized FGFR
T1 sequence (looked up): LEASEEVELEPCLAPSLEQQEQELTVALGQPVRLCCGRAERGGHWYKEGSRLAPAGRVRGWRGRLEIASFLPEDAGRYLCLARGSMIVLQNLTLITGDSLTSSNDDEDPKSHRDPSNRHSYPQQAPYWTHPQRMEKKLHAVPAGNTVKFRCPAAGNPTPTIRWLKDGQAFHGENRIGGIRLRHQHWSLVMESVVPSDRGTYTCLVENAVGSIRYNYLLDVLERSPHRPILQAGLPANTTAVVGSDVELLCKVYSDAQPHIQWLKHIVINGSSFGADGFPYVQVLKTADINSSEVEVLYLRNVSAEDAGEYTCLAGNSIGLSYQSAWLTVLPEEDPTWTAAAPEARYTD

[2] = target: T1, FGFR4 extracellular domain, immobilized (R4-Fc); assay: ELISA: biotinylated ligand on immobilized FGFR extracellular domain

| binding [1] | binding [2] | Substance |
| --- | --- | --- |
| binds | binds | FGF-18 (recombinant wild type, mature form without the signal peptide) (from UniProt O76093 29-207) (ligand) |
| binds |  | FGF-18^Δ31 (from UniProt O76093 32-207) (ligand) |
|  | binds | FGF-18^Δ37 (from UniProt O76093 38-207) (ligand) |
|  | binds | FGF-18^Δ45 (from UniProt O76093 46-207) (ligand) |
|  | binds | FGF-18^Δ51 (from UniProt O76093 52-207) (ligand) |
